Test results: PMC8881609
No constants are given. Whether binding was seen depends on the method and setting. In cells and extracts the contact can be indirect. For part of these data: A result given as binding can be weak or reduced; the word gives no strength. Sequences can lack the tags named with a protein. One block for each molecule: values may come before it.

Sequences of proteins named here, by UniProt entry; tags and fusion partners are left off. A change or cut given only in a name is not applied to a line headed by its entry.
UniProt Q8R0K2: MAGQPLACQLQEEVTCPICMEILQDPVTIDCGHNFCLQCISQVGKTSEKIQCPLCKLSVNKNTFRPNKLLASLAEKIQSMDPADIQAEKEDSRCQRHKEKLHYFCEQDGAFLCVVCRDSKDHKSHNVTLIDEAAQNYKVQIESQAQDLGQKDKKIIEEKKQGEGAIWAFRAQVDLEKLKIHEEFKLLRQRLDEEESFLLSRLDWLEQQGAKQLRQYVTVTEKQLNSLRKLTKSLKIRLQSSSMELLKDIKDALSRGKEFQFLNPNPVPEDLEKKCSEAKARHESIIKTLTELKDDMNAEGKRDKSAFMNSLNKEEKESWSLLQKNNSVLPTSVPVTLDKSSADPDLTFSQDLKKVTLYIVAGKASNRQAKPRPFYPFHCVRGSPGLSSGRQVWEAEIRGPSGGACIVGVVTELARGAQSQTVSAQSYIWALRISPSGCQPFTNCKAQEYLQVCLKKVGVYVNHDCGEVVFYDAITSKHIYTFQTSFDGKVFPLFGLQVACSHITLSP

Columns and labels:
[1] = molecular target: T1, TRIM31-Flag WT (human tripartite motif-containing protein 31, E3 ubiquitin ligase) (human) (UniProt Q9BZY9); assay: co-IP; L02 cells transiently transfected with Flag- and HA-tagged vectors, 36 h; Pierce IP Lysis Buffer at 4 °C; Protein A/G magnetic agarose beads, indicated antibodies at 4 °C overnight; blots probed with anti-Flag or anti-HA
T1 sequence: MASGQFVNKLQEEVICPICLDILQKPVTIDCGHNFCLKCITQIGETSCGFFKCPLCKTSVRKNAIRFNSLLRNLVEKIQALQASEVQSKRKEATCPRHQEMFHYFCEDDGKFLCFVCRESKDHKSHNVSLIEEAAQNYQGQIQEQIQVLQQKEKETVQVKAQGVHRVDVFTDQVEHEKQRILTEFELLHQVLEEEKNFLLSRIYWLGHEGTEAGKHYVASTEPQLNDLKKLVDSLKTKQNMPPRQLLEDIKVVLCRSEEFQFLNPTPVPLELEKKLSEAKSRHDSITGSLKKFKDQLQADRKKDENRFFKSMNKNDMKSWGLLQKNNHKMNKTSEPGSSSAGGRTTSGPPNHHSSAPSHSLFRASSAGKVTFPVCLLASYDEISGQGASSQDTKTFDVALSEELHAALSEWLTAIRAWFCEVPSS

[2] = molecular target: TRIM31-Flag RING^Δ (RING-finger domain ablation mutant) (human) (UniProt Q9BZY9); assay: as above
[3] = molecular target: mouse Trim31-Flag CC^Δ (CC domain deletion) (mouse) (UniProt Q8R0K2); assay: co-IP; transfected mouse hepatocytes; mouse Trim31-Flag and Rhbdf2-HA vectors (wild type, CC^Δ, Tail^Δ)

- binding [1]: no binding
Molecule: RHBDF2-HA Tail^Δ (N-terminal cytoplasmic tail domain deletion mutant) (from UniProt Q6PJF5) (domain or fragment)

- binding [2]: binds
B1: RHBDF2-HA WT (human rhomboid 5 homolog 2) (protein, UniProt Q6PJF5 1-856)
chain: MASADKNGGSVSSVSSSRLQSRKPPNLSITIPPPEKETQAPGEQDSMLPEGFQNRRLKKSQPRTWAAHTTACPPSFLPKRKNPAYLKSVSLQEPRSRWQESSEKRPGFRRQASLSQSIRKGAAQWFGVSGDWEGQRQQWQRRSLHHCSMRYGRLKASCQRDLELPSQEAPSFQGTESPKPCKMPKIVDPLARGRAFRHPEEMDRPHAPHPPLTPGVLSLTSFTSVRSGYSHLPRRKRMSVAHMSLQAAAALLKGRSVLDATGQRCRVVKRSFAFPSFLEEDVVDGADTFDSSFFSKEEMSSMPDDVFESPPLSASYFRGIPHSASPVSPDGVQIPLKEYGRAPVPGPRRGKRIASKVKHFAFDRKKRHYGLGVVGNWLNRSYRRSISSTVQRQLESFDSHRPYFTYWLTFVHVIITLLVICTYGIAPVGFAQHVTTQLVLRNKGVYESVKYIQQENFWVGPSSIDLIHLGAKFSPCIRKDGQIEQLVLRERDLERDSGCCVQNDHSGCIQTQRKDCSETLATFVKWQDDTGPPMDKSDLGQKRTSGAVCHQDPRTCEEPASSGAHIWPDDITKWPICTEQARSNHTGFLHMDCEIKGRPCCIGTKGSCEITTREYCEFMHGYFHEEATLCSQVHCLDKVCGLLPFLNPEVPDQFYRLWLSLFLHAGVVHCLVSVVFQMTILRDLEKLAGWHRIAIIFILSGITGNLASAIFLPYRAEVGPAGSQFGLLACLFVELFQSWPLLERPWKAFLNLSAIVLFLFICGLLPWIDNIAHIFGFLSGLLLAFAFLPYITFGTSDKYRKRALILVSLLAFAGLFAALVLWLYIYPINWPWIEHLTCFPFTSRFCEKYELDQVLH

- binding [3]: no binding
B2: mouse Rhbdf2-HA wild type (protein, UniProt Q80WQ6 1-827)
chain: MASADKNGSNLPSVSGSRLQSRKPPNLSITIPPPESQAPGEQDSMLPERRKNPAYLKSVSLQEPRGRWQEGAEKRPGFRRQASLSQSIRKSTAQWFGVSGDWEGKRQNWHRRSLHHCSVHYGRLKASCQRELELPSQEVPSFQGTESPKPCKMPKIVDPLARGRAFRHPDEVDRPHAAHPPLTPGVLSLTSFTSVRSGYSHLPRRKRISVAHMSFQAAAALLKGRSVLDATGQRCRHVKRSFAYPSFLEEDAVDGADTFDSSFFSKEEMSSMPDDVFESPPLSASYFRGVPHSASPVSPDGVHIPLKEYSGGRALGPGTQRGKRIASKVKHFAFDRKKRHYGLGVVGNWLNRSYRRSISSTVQRQLESFDSHRPYFTYWLTFVHIIITLLVICTYGIAPVGFAQHVTTQLVLKNRGVYESVKYIQQENFWIGPSSIDLIHLGAKFSPCIRKDQQIEQLVRRERDIERTSGCCVQNDRSGCIQTLKKDCSETLATFVKWQNDTGPSDKSDLSQKQPSAVVCHQDPRTCEEPASSGAHIWPDDITKWPICTEQAQSNHTGLLHIDCKIKGRPCCIGTKGSCEITTREYCEFMHGYFHEDATLCSQVHCLDKVCGLLPFLNPEVPDQFYRIWLSLFLHAGIVHCLVSVVFQMTILRDLEKLAGWHRISIIFILSGITGNLASAIFLPYRAEVGPAGSQFGLLACLFVELFQSWQLLERPWKAFFNLSAIVLFLFICGLLPWIDNIAHIFGFLSGMLLAFAFLPYITFGTSDKYRKRALILVSLLVFAGLFASLVLWLYIYPINWPWIEYLTCFPFTSRFCEKYELDQVLH
